Among all 53,000 sequences or so, about 3,700 (7%) were called active.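 The calls were made as follows: active = gene knockdowns whose robust z-score for IL-1 alpha signal is at least 2 or at most -2, so actives lie on both sides; inactive = the rest.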 The list shows a part of the results.
assay: Components of the Cytosolic LPS Sensing Pathway: Gene Identification via Genome-wide siRNA Screen; details: RAW264.7 macrophages, IL-1a HTRF, actives lie on both sides, screened at 100 nM (by protocol), cells primed 5 h with Pam3CSK4 first;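 also: robust z of the log signal after scaling to non-targeting control siRNA wells of the plate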
How it was run: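 Mouse macrophage line RAW264.7 is transfected with siRNA (100 nM final), grown 48h, primed with TLR ligand Pam3CSK4 5 h and given intracellular LipidA 24 h. IL-1a in supernatant is read by HTRF and viability by luminescence.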

Row | Sequence | z-score
1 | GGACAUUGUUGUGACAGUGTT against Crppa | inactive: 0.0157
2 | CGGGAGUCGGAGAUUUGAATT against Kcnj12 | inactive: -0.97
3 | GCACAAAUUAAAUGUUAGGTT against Zhx2 | inactive: 0.235
4 | GGAGGAUGGGUGUGAAUCUTT against Pycr2 | inactive: -1.01
5 | GGAGUCCUGGUGCAAACUCTT against Cnih2 | inactive: 1.05
6 | GGAGUACAUGGUACACGUUTT against Fut8 | inactive: 1.52
7 | GGCUCAAAACCACACCACUTT against Olfr477 | active: -2.75
8 | GGUUAAAAUUUGGAAUCUGTT against Dcaf13 | inactive: -0.469
9 | GGCAUUGACCCUUCUUGGATT against Stam2 | inactive: -0.395
10 | GGCUUUCGGUCUCUUAGUCTT against Zfp811 | inactive: -0.875
11 | GCAUUUGAAUCGACUACAGTT against Vti1b | inactive: 0.691
12 | GGAUCUGUUACUCUGAUACTT against Pias4 | inactive: 0.847
13 | GCACUGAACCAAUUUGCCCTT against Dsg1c | inactive: 0.776
14 | CCAGUGGCCCAUUUUUUGUTT against Slc18a1 | inactive: 0.85
15 | GGUACUGCUGUUGUCAAUGTT against Prdx3 | inactive: -0.235
16 | CGUGUUGAAAAACUCACAATT against Vmn1r30 | inactive: -1.07
17 | GGUGGAGCGAAUCAAGGAGTT against Nedd8 | inactive: 0.136
18 | GGAGCAGUCCUAAUGAUACTT against Phf6 | inactive: 0.514
19 | GCCAACUAGAAAACAACUGTT against Pdzd11 | inactive: 1.6
20 | GGUGAGCAUCGUGUUCAUCTT against Galnt18 | inactive: 0.712
21 | GGAGUUAAGAAAGAAAACATT against Cir1 | inactive: -1.9
22 | GGAACACUGGAAAAAUGUUTT against Ldhc | inactive: 0.176

Row | Sequence | z-score
23 | GGGUAAUACUCCUAAGAAATT against Fbxo48 | inactive: 0.00449
24 | GGGAUUGUUUCAAGACAAUTT against Septin2 | inactive: -0.131
25 | GGAUUGUUGGGAAUUCUUUTT against Zfp60 | inactive: 0.748
26 | CCCAUUAGAUGCUGAAUAUTT against Stmn1 | inactive: 0.139
27 | GGAGGUCCAUGUCCUGCUUTT against Mesp2 | inactive: 0.336
28 | GGAACCUAGGGUUUUCAGCTT against Nkapd1 | inactive: 1.25
29 | GCUUUGAUCGAUUCUCUCGTT against Syt11 | inactive: 0.366
30 | GGUACUGUACUGAUGACAUTT against Dhx32 | inactive: -0.769
31 | GGCUUUGUAGAAAAUUCAUTT against Polr2a | active: -2.15
32 | GGAAAGAAAGACUAGUAAATT against Cpne1 | inactive: 0.815
33 | GCAGGAAGGUCAUAUCUUATT against Olfr324 | inactive: -0.258
34 | GCAUUGUGAGACUAACGUGTT against Dusp7 | inactive: 1.08
35 | GGAAGACAAAUGAGUUAUGTT against Sema3b | inactive: 0.359
36 | GGGAAUAGCAAACUUAUCUTT against Nfil3 | inactive: -0.688
37 | GGAGGUUUAAAUUUGAUGUTT against Adcy9 | inactive: 0.401
38 | GGAACUGCUAAGAGAGAAATT against Ccdc91 | inactive: 1.19
39 | GGUCAUGAGAGCAUACUGCTT against Ankrd10 | inactive: -1.53
40 | GGAUUUCAACAUGCCUCUGTT against Pdlim5 | inactive: 0.777
41 | GGUGAUGUUCUAACCCUGCTT against Trex1 | inactive: -0.0124
42 | GGUCGUUAUCACCAGGCUATT against Rpl26 | inactive: -0.878
43 | GGAGCUUUUGGACCACUUGTT against Tmod1 | inactive: -0.892
44 | GGCGACUUGUGCCUAACUUTT against Bex4 | inactive: -0.948

Already shown: entries from further up.
Row | Sequence | z-score
22 | GGAACACUGGAAAAAUGUUTT against Ldhc | inactive: 0.176
23 | GGGUAAUACUCCUAAGAAATT against Fbxo48 | inactive: 0.00449
24 | GGGAUUGUUUCAAGACAAUTT against Septin2 | inactive: -0.131
25 | GGAUUGUUGGGAAUUCUUUTT against Zfp60 | inactive: 0.748
26 | CCCAUUAGAUGCUGAAUAUTT against Stmn1 | inactive: 0.139
27 | GGAGGUCCAUGUCCUGCUUTT against Mesp2 | inactive: 0.336
28 | GGAACCUAGGGUUUUCAGCTT against Nkapd1 | inactive: 1.25
29 | GCUUUGAUCGAUUCUCUCGTT against Syt11 | inactive: 0.366
30 | GGUACUGUACUGAUGACAUTT against Dhx32 | inactive: -0.769
31 | GGCUUUGUAGAAAAUUCAUTT against Polr2a | active: -2.15
32 | GGAAAGAAAGACUAGUAAATT against Cpne1 | inactive: 0.815
33 | GCAGGAAGGUCAUAUCUUATT against Olfr324 | inactive: -0.258
34 | GCAUUGUGAGACUAACGUGTT against Dusp7 | inactive: 1.08
35 | GGAAGACAAAUGAGUUAUGTT against Sema3b | inactive: 0.359
36 | GGGAAUAGCAAACUUAUCUTT against Nfil3 | inactive: -0.688
37 | GGAGGUUUAAAUUUGAUGUTT against Adcy9 | inactive: 0.401
38 | GGAACUGCUAAGAGAGAAATT against Ccdc91 | inactive: 1.19
39 | GGUCAUGAGAGCAUACUGCTT against Ankrd10 | inactive: -1.53
40 | GGAUUUCAACAUGCCUCUGTT against Pdlim5 | inactive: 0.777
41 | GGUGAUGUUCUAACCCUGCTT against Trex1 | inactive: -0.0124
42 | GGUCGUUAUCACCAGGCUATT against Rpl26 | inactive: -0.878
43 | GGAGCUUUUGGACCACUUGTT against Tmod1 | inactive: -0.892
44 | GGCGACUUGUGCCUAACUUTT against Bex4 | inactive: -0.948

(further entries)

Row | Sequence | z-score
45 | GGAGGUCUUUUCUAAGUACTT against Pde6c | inactive: 0.625
46 | GGAGAAGGCUGCUGAUAUUTT against Phf8 | inactive: 0.393
47 | GGUGCUUUAUUAGGUAUUCTT against Atp6v1g3 | inactive: -1.26
48 | UAUCCACAGUAUGGUGGCUTT against Tas2r140 | inactive: -0.644
49 | GGGAAUUCAUGAUCAAGAUTT against Abca3 | inactive: -0.578
50 | GGUGCUAUUGUGGAUCAACTT against Zdhhc17 | inactive: 0.804
51 | GGGUGAUUUCUACCUUCAATT against D630003M21Rik | inactive: -0.496
52 | GGCUAUGCACUACUCAUUGTT against Galk1 | inactive: -0.607
53 | GCUGAUUGCUGAACGACUUTT against Tchp | inactive: -1.28
54 | GCUGUACAGUCAAUACCUGTT against Abhd17a | inactive: 1.2
55 | CCACUGCACCACAACUCAATT against Zfp36l2 | inactive: -0.753
56 | CCAGAAGUGAUCGCCUCUUTT against Zfp300 | inactive: 1.16
57 | CGCGAACUGCUCUAUAGAGTT against Hmgcl | inactive: -0.00934
58 | CCAGUAUGUACCACUAAGUTT against Xkr8 | inactive: 0.0914
59 | GCUUCUGAUGGACAUUCACTT against Uhrf2 | inactive: 0.449
60 | GAGGAAGUCCACGAAACUATT against Prl3d1 | inactive: 0.143
61 | GGGCCAAAUUUGAAUCCCUTT against Rcan1 | active: -2.09
62 | GCCUGAGUGAUAGUGAUUUTT against Fam122b | inactive: 0.83
63 | GGCACUGUGGUGUAAAUCCTT against Nnt | inactive: -1.53
64 | GGUUCUGAAUGGUUAUUUCTT against Itih5 | inactive: -0.387
65 | GGAUUUCAACAGACAGGUGTT against Paip2b | inactive: 0.877
66 | GCUAAUAACUGUUCACAUATT against Magi1 | inactive: 1.97

Row | Sequence | z-score
67 | GUCCCUCUGUUCGUCACGUTT against Olfr1449 | inactive: -0.434
68 | CCAAAUUUGAGAGCAUAAGTT against Armh4 | inactive: -0.714
69 | CGGCAAGAUGUCUACUAACTT against Wdtc1 | inactive: 0.655
70 | GGGAAAGUGUGUAAUAAAUTT against Egflam | inactive: -0.774
71 | GCUGAGUAGACUUCGUCUGTT against Kifc2 | inactive: 1.05
72 | CCUGUACAGUUGGAAACAUTT against Snrpd1 | active: -2.02
73 | GGUGCAGAGAAGUGUAACATT against Slc25a21 | inactive: -1.6
74 | GGACUACAUGGAUGCCAUGTT against Prkrip1 | inactive: 0.482
75 | GCUCAUAGGUUUUGAGUAATT against Wt1 | inactive: 0.982
76 | GGUGAAGAAGUGACACCUGTT against Tppp3 | inactive: -0.777
77 | GGACCUUUCUCAACUACUATT against Edem2 | inactive: -0.706
78 | GCCAAAAGGAGGACAUACCTT against Mylk3 | inactive: 1.08
79 | GGAAUUUAUUCACCCAGACTT against Sirt2 | inactive: -1.51
80 | GGUCUUACGUUGGAUUUUUTT against Extl3 | inactive: -0.716
81 | GUCUGAACCCAUCUUCUAUTT against Hcrt | inactive: -0.801
82 | CCAAUGGAAAAAGUGCACATT against Olfr1061 | inactive: -0.789
83 | CCUUAAUCCAAACAAGUCUTT against Ncl | inactive: 1.08
84 | CCCGGAAGACACUAAAACUTT against Gmeb1 | inactive: -0.746
85 | GCAUAUCAACGCAGUGUCATT against Tssk5 | inactive: -1.26
86 | GGCUGAAAGCCCAGAUCUUTT against Celf5 | inactive: -1.8
87 | GGUGGAUACAGAAAGUCAUTT against F2 | inactive: -0.839
88 | GGAGCUCGUGUAAAUGCCATT against Ankrd44 | inactive: 1.16

Row | Sequence | z-score
89 | GGCUUAUAUUCAACCAUGGTT against Elavl4 | inactive: -0.776
90 | GGAGGUUAAGAGAUCUCCATT against Katnbl1 | inactive: 0.55
91 | GGAGACCCUGGUGAGAAGATT against Emid1 | inactive: 0.26
92 | GUUUCCAUAUCCUUUAAGUTT against Lilr4b | inactive: 1.23
93 | GGGACUUCAUGCUAAGUUUTT against Smarcd3 | inactive: 1.38
94 | CCACUCUGUUAUCACCGAGTT against Olfr774 | inactive: 0.431
95 | GGAAUCUCCUAGAAAUAUUTT against Cep95 | inactive: 0.91
96 | GGACUCAUCAGAGGAUAAATT against C130026I21Rik | inactive: -1.35
97 | GGAAUCUAGACUUAAUUCUTT against Trp53inp1 | inactive: 0.422
98 | CGACUCCAAUCUACAGGUUTT against Ccdc130 | inactive: 0.693
99 | GGAGAUCAUGCUCAAGAACTT against Dgke | inactive: 0.176
100 | CCACAAUUUGAGAACAUUUTT against Tyrp1 | inactive: -0.539
101 | GCAAAGUUGGUGACGUGAUTT against Pole2 | active: -2.15
102 | GGGUAACAUUAGGAGAGUUTT against N4bp2l1 | inactive: 0.719
103 | GAAUUCCAGCUUAUUCCUUTT against Klra15 | inactive: 0.6
104 | GGCAGCCAAGAGAUUGAAUTT against Suclg2 | inactive: 1.09
105 | GAGAUGUCCGAAAUGCCAATT against Smco4 | inactive: 1.73
106 | GCUGUGUACUCUGCCCUGATT against Olfr346 | inactive: -0.0275
107 | GGUCAUGCACACUCGAAAUTT against Mrpl54 | inactive: 0.831
